No constants are given. Whether binding was seen depends on the method and setting. In cells and extracts the contact can be indirect. A yes stands for co-enrichment or nearness to the bait. Other partners may have been found.
Target: T1, kinesin family 15 (KIF15) (human (endogenous in PANC-1 / MIA PaCa-2)) (UniProt Q9NS87)
T1 sequence: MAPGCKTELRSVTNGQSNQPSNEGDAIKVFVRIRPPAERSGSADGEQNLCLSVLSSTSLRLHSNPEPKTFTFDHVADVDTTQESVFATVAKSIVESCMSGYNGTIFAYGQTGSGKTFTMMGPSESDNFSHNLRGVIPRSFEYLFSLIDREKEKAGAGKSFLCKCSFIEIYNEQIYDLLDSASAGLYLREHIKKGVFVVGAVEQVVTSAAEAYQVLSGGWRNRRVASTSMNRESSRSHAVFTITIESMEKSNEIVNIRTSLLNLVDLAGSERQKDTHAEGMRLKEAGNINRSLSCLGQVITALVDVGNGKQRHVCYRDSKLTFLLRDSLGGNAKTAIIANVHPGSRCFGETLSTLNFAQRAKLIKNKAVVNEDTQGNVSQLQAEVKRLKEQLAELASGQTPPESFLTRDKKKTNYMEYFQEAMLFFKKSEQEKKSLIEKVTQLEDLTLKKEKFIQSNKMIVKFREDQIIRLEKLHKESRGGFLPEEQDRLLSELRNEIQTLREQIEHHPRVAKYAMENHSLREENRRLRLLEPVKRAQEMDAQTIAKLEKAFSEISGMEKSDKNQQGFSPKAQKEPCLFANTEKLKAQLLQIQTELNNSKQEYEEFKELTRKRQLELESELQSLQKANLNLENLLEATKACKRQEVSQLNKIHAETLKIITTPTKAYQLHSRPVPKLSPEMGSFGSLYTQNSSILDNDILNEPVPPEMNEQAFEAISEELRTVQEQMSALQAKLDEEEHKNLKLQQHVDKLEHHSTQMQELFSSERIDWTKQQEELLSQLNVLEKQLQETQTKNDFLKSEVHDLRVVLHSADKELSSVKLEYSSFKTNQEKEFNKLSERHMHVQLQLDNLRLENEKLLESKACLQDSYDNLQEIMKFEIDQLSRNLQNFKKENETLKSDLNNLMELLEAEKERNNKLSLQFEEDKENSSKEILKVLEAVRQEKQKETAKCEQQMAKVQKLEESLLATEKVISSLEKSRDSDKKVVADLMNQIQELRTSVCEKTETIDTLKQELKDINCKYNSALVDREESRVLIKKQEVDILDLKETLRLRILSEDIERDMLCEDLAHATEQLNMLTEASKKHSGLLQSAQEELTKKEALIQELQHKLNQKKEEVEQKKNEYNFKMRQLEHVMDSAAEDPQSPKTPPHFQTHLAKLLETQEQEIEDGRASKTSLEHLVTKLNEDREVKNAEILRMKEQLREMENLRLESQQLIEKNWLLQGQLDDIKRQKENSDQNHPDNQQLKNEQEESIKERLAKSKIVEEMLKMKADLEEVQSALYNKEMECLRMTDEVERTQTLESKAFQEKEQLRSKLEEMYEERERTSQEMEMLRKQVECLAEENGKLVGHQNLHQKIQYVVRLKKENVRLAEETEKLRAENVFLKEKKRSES
Assay: affinity purification with mass spectrometry; KIF15 immunoprecipitated from PC cell lysates (primary antibody or IgG overnight at 4 °C, agarose beads 4 h, five washes); gel stained, band of interest analysed by mass spectrometry

By UniProt entry, the sequences of proteins in these tests, tags left out.
UniProt P46013: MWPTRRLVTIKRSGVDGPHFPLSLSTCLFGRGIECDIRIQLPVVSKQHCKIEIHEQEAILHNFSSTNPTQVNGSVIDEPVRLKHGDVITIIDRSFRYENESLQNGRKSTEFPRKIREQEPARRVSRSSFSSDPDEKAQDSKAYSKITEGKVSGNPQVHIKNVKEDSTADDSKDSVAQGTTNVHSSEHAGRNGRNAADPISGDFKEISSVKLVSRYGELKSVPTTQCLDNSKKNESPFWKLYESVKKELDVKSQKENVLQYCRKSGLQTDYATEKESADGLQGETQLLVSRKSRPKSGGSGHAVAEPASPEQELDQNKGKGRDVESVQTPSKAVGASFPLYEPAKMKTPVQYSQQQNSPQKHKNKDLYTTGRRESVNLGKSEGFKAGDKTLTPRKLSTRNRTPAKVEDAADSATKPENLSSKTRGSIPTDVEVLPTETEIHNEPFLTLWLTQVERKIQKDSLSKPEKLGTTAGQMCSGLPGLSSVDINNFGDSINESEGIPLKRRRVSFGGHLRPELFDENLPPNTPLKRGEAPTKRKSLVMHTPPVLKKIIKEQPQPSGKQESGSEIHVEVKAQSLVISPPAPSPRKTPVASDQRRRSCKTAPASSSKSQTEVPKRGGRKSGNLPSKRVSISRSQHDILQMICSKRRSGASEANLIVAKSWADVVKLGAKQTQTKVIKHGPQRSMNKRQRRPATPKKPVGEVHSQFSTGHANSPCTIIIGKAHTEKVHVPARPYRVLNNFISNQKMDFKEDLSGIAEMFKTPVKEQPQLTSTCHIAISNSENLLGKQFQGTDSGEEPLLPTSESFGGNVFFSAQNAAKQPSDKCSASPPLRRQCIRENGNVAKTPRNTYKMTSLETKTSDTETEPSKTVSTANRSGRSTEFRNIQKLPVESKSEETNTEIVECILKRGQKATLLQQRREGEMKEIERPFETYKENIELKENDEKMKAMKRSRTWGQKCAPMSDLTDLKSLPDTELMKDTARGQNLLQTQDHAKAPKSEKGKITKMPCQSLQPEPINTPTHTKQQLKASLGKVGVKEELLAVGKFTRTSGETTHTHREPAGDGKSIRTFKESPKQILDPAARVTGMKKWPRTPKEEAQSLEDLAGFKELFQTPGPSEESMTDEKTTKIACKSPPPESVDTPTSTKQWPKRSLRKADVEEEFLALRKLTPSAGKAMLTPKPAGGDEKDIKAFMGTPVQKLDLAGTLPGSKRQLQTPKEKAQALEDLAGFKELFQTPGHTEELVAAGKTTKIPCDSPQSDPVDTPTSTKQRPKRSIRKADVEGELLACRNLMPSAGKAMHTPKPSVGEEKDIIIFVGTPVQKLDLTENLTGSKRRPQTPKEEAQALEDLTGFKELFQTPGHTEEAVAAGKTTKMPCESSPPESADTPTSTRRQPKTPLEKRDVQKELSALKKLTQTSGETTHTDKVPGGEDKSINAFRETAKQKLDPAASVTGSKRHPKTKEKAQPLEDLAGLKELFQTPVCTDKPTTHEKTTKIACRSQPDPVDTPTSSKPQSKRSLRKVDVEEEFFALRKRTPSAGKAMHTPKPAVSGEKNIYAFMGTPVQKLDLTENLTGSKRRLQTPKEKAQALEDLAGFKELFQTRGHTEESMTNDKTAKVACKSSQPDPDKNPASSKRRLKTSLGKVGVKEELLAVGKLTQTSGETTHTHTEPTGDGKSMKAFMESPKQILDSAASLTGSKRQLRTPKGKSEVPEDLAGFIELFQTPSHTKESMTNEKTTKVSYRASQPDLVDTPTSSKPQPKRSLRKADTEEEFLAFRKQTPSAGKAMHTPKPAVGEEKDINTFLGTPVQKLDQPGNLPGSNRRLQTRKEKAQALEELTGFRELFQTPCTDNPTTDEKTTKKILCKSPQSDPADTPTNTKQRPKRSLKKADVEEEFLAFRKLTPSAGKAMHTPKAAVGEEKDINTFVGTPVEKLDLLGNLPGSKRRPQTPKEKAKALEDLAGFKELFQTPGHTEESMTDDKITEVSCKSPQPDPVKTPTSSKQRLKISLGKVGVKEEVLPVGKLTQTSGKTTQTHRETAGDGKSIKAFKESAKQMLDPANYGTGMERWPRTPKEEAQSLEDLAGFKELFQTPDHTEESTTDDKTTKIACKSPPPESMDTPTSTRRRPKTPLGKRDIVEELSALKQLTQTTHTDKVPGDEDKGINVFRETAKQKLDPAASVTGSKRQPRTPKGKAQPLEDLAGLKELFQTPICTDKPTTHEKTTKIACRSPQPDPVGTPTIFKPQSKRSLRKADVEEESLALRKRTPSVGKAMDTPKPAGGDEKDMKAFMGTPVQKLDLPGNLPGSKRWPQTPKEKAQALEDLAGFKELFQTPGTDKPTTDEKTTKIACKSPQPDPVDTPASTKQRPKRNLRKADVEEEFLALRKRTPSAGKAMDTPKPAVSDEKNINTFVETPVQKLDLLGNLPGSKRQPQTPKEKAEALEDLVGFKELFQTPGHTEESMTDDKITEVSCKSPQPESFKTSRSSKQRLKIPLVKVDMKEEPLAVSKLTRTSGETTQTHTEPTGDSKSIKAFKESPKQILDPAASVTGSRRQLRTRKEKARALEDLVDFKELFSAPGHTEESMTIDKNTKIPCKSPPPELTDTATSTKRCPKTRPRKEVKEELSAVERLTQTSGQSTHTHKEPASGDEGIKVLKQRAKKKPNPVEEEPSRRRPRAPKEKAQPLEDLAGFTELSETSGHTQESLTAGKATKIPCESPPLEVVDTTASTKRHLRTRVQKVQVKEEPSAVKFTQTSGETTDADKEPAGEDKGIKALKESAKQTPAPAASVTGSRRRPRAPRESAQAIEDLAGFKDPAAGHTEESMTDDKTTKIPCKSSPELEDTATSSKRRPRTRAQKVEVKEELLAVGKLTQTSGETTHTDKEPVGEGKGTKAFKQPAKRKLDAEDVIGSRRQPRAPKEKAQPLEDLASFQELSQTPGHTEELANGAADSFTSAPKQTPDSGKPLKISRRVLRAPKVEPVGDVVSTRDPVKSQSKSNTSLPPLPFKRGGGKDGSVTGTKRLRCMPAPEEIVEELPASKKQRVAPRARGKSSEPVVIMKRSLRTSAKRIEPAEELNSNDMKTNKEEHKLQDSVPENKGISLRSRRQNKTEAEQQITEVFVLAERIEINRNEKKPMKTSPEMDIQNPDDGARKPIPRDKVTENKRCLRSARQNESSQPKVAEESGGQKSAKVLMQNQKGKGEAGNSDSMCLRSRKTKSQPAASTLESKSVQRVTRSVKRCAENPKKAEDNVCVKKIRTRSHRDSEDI
UniProt O00443: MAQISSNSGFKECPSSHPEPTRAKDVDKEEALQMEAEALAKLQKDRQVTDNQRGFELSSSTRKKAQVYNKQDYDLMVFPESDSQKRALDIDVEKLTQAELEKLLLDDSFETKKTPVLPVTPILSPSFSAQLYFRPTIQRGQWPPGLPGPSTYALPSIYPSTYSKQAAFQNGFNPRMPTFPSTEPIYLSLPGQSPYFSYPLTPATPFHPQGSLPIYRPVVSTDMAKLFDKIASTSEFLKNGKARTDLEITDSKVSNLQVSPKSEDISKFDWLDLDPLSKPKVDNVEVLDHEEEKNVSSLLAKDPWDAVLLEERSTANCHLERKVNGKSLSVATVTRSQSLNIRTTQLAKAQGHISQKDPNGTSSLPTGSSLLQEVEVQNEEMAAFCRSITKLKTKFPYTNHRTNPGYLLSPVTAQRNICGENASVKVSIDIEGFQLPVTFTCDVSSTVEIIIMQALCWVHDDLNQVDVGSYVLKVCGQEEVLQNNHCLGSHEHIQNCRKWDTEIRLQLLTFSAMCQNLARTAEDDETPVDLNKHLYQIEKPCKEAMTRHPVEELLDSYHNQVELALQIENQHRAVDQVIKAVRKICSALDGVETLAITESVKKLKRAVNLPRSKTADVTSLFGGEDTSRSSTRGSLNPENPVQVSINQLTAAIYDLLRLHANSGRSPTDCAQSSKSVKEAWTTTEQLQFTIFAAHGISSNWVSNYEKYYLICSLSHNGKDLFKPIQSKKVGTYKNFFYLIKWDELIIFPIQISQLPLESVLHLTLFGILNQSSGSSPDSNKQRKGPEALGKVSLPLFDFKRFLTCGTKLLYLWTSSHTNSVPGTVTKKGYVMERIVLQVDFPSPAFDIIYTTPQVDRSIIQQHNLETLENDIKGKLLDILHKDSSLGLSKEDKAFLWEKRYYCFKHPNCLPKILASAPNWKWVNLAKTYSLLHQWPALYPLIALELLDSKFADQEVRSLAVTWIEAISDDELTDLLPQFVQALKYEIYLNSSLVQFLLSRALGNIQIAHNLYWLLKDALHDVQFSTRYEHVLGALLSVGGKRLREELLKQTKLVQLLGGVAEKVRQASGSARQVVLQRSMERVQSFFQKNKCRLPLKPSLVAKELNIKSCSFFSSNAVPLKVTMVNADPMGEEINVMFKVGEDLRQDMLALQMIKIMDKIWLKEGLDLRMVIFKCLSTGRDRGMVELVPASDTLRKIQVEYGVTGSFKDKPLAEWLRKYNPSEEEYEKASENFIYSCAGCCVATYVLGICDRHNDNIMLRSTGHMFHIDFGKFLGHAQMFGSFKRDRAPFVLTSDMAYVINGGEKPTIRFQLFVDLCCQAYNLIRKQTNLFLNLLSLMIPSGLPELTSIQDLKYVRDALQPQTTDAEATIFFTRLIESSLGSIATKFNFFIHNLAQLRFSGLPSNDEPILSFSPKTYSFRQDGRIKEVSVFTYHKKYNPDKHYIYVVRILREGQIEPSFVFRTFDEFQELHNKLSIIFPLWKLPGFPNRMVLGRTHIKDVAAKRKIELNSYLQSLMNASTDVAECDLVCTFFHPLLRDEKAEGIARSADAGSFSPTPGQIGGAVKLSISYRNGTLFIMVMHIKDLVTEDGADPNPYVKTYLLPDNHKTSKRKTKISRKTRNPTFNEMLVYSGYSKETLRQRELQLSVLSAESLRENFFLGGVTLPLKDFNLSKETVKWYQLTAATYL
UniProt P62491: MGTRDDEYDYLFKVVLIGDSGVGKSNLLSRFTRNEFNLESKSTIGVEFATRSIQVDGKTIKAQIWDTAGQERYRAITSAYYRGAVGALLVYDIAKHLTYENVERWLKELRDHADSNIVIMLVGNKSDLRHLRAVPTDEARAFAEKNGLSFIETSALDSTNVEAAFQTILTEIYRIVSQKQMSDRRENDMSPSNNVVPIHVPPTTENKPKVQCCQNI
UniProt Q9ULW0: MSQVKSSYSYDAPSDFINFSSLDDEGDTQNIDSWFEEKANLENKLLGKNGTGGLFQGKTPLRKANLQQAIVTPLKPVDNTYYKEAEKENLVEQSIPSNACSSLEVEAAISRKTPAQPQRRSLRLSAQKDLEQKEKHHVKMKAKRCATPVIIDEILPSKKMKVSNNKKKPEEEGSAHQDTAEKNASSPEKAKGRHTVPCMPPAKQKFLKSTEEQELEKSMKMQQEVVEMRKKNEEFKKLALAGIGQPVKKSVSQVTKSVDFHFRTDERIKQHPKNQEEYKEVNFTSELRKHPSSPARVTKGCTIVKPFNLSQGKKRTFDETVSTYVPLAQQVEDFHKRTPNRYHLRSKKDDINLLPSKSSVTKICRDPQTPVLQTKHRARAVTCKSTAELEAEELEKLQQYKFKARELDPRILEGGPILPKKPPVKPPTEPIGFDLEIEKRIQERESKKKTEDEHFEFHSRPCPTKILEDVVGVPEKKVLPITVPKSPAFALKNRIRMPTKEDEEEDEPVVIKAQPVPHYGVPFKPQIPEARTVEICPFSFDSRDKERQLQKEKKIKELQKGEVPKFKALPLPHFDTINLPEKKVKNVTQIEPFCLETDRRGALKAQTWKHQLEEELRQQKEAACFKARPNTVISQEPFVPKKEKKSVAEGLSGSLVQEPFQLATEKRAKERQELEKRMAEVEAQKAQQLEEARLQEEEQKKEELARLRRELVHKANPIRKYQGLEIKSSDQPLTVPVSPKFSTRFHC

| Substance | binding |
| --- | --- |
| KI-67 (from UniProt P46013 1-3256) | binds |
| PI3K-C2α (from UniProt O00443 1-1686) | binds |
| RAB11A (from UniProt P62491 1-216) | binds |
| TPX2 (from UniProt Q9ULW0 1-747) | binds |
